Experimental data: patent publication US9163032B2, “Esters of DCPLA and methods of treatment using the same” (Blanchette Rockefeller Neurosciences Institute, priority 2011, dated 2015)
Some entries share one result that the patent states for a list of compounds. For at least one compound, name, drawing or mass did not settle the structure.

System: primary human cortical neurons
Test: 40 day culture of human primary cortical neurons: survival, synapses, branching
Assay type: cell-based
Conditions: 0.27 nM added every third day
Protocol: To examine the effects of PKC-ε activation, cultured human cortical neurons in serum-free artificial medium were exposed to 100 nM DCPLA-ME added every three days, along with 50% medium replacement, for 40 days. More specifically, human primary cortical neurons were grown in Neuronal Medium (ScienCell Cat No#1521) containing neuronal growth supplement (NGS) (Sciencell Cat No#1562).
Cells were plated on poly-l-lysine (0.001%) coated plates at a density of >10000 cells/cm2. Half of the media was replaced by new media every 3 days. DCPLA-ME was dissolved in 100% ethanol and added at 100 nM final concentration. Fresh DCPLA-ME (100 nM) was added every 3 days during media change. The experiments were continued for 40 days.
Human primary neurons (ScienCell Research Laboratories, USA) were thawed and plated on poly-L-lysine coated plates at a density of 10,000 cells per cm^2 and were maintained in neuronal medium (DMEM+high glucose+neuronal growth supplement, ScienCell Research Laboratories, USA) following the recommended method. Primary human neurons were then treated with either DCPLA-ME (100 nM) or bryostatin 1 (0.27 nM) for 40 days. Fresh drug was added every third day with 50% media change.

SMILES: CCC/C=C/C=C/C(=O)O[C@H]1/C(=C/C(=O)OC)C[C@H]2C[C@H]([C@@H](C)O)OC(=O)C[C@H](O)C[C@@H]3C[C@H](OC(C)=O)C(C)(C)[C@](O)(C[C@@H]4C/C(=C/C(=O)OC)C[C@H](/C=C/C(C)(C)[C@]1(O)O2)O4)O3 [Bryostatin 1]
- stabilized cellular viability: at least 40 days
